For the experiment, the target named is SP1 (human (endogenous in FaDu and HK-1)), P08047. The experiment in a line: co-IP; 800 ug lysate of FaDu and HK-1 cells (50 mM Tris pH 7.6, 150 mM NaCl, 0.5% Triton-X100, 0.1% Nonidet P-40) incubated with 5 ug anti-SP1 or normal rabbit IgG overnight at 4 C, Dynabeads Protein G, immunoblot. The settings on record: remark: other sources report otherwise. In general terms: A western blot detects proteins with antibodies after separation by electrophoresis.

Results are given in words; binding and its absence hold for the method and conditions named. Binding seen in cells or lysates may run through a third protein.

B1: HDAC4, P56524 1-1084 (enzyme)
chain: MSSQSHPDGLSGRDQPVELLNPARVNHMPSTVDVATALPLQVAPSAVPMDLRLDHQFSLPVAEPALREQQLQQELLALKQKQQIQRQILIAEFQRQHEQLSRQHEAQLHEHIKQQQEMLAMKHQQELLEHQRKLERHRQEQELEKQHREQKLQQLKNKEKGKESAVASTEVKMKLQEFVLNKKKALAHRNLNHCISSDPRYWYGKTQHSSLDQSSPPQSGVSTSYNHPVLGMYDAKDDFPLRKTASEPNLKLRSRLKQKVAERRSSPLLRRKDGPVVTALKKRPLDVTDSACSSAPGSGPSSPNNSSGSVSAENGIAPAVPSIPAETSLAHRLVAREGSAAPLPLYTSPSLPNITLGLPATGPSAGTAGQQDAERLTLPALQQRLSLFPGTHLTPYLSTSPLERDGGAAHSPLLQHMVLLEQPPAQAPLVTGLGALPLHAQSLVGADRVSPSIHKLRQHRPLGRTQSAPLPQNAQALQHLVIQQQHQQFLEKHKQQFQQQQLQMNKIIPKPSEPARQPESHPEETEEELREHQALLDEPYLDRLPGQKEAHAQAGVQVKQEPIESDEEEAEPPREVEPGQRQPSEQELLFRQQALLLEQQRIHQLRNYQASMEAAGIPVSFGGHRPLSRAQSSPASATFPVSVQEPPTKPRFTTGLVYDTLMLKHQCTCGSSSSHPEHAGRIQSIWSRLQETGLRGKCECIRGRKATLEELQTVHSEAHTLLYGTNPLNRQKLDSKKLLGSLASVFVRLPCGGVGVDSDTIWNEVHSAGAARLAVGCVVELVFKVATGELKNGFAVVRPPGHHAEESTPMGFCYFNSVAVAAKLLQQRLSVSKILIVDWDVHHGNGTQQAFYSDPSVLYMSLHRYDDGNFFPGSGAPDEVGTGPGVGFNVNMAFTGGLDPPMGDAEYLAAFRTVVMPIASEFAPDVVLVSSGFDAVEGHPTPLGGYNLSARCFGYLTKQLMGLAGGRIVLALEGGHDLTAICDASEACVSALLGNELDPLPEKVLQQRPNANAVRSMEKVMEIHSKYWRCLQRTTSTAGRSLIEAQTCENEEAETVTAMASLSVGVKPAEKRPDEEPMEEEPPL
As for B1, the binding result is recorded as “no binding”.

For the origin of these results see PMC11727331.
